One substance from paper PMC5297841 can be followed below.

By UniProt entry, the sequences of proteins in these tests, tags left out. Residues count along the entry.
UniProt P35613, residues 346-385: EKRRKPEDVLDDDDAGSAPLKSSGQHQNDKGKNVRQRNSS

In this assay the target is GST-CD147-ICD (human) (UniProt P35613). As to the kind of experiment: affinity purification with mass spectrometry; 20 ug GST-CD147-ICD or GST pre-bound to coupling resin (ProFound Mammalian co-IP Kit); lysate of 1 x 10^7 cells (cell line not given); four washes with IP Lysis/Wash Buffer; eluate digested with trypsin, LTQ-Orbitrap; only the target purified.

No constants are given. Whether binding was seen depends on the method and setting. In cells and extracts the contact can be indirect. A yes stands for co-enrichment or nearness to the bait. Other partners may have been found.

Consider FBXO22 (from UniProt Q8NEZ5-1 1-403), for which the binding result is on record as “binds”.
